Experimental data: article doi:10.1101/047555
These are yes or no findings as the source states them, for the method shown.

Biological target: MamE (residues 108-728), soluble form with the N-terminal membrane anchor removed (Magnetospirillum magneticum AMB-1) (UniProt Q2W8Q8)
Assay: SEC

B1: MamE (residues 108-728), soluble form with the N-terminal membrane anchor removed (enzyme, UniProt Q2W8Q8 108-728)
chain: VDFGPAPIGAGGPFSSVVTLLRNSVVAVTASSANGQAMPDPLGLANPDGLPHFANPATRSVENIGTGVIVRNDGFIVTNYHVVRGANSVFVTVQDDVGSTRYSAEIIKMDEALDLALLKVAPKTPLTAAVLGDSDGVQVADEVIAIGTPFGLDMTVSRGIISAKRKSMVIEGVTHSNLLQTDAAINQGNSGGPLVISNGTVVGINTAIYTPNGAFAGIGFAVPSNQARLFILDEVGWLPTSTAEGASMGLVAMQRPMGGGVGAAGPAIFAGTRAPHTDGRQNMDCTTCHDLIPAGNGRPAPMMPIAAPIPPPPIPMGAVSPHTDGRQNMNCANCHQMLGGAAPIAAPGLGGGAYRFAQPPGSLAINIQGPRGGQSTAAGTGRVTLLGAALTPMSQRLGAQTGVPVGRGVFISGVTPNTPAATAGLRPGDVLLKVDGRPVRLPEEVSAIMVEMHAGRSVRLGVLRDGDVRNMTLVAGPAGLAAAAVQAPAIADMAQPPMGGMAPTAPGMVAVPGGPAVMPKPPTEFNWLGMEIETFQAPRPITGVPGAVPVPGAKGAQVAEVLVGSRAAVAGLQANDLILEVNNRPVAGPARLDAAIKGATNAGQQILLKVNRNGQEFWIVL
modifications: heme loading of the c-type cytochrome motifs in the periplasm
  binding: no binding
